For assay [1], the target named is Epidermal growth factor receptor (human (endogenous in MDA-MB-231)) (UniProt P00533). The assay can be described thus: flow cytometry on cells; rhodamine B-conjugated peptides incubated with MDA-MB-231 cells (EGFR overexpressed) for 2 h at 37 °C; SiHa cells as EGFR-negative control; only the binder purified. A general note: Flow cytometry measures light scatter and fluorescence of single cells or particles in a stream.

The target is the same in assay [2]. Kind of assay: confocal microscopy of cells with fluorescent peptide; confocal images of peptides on MDA-MB-231 cells, SiHa as receptor-negative control; details only in the supplementary file; only the binder purified.

These are yes or no findings as the source states them, for the method shown. Some results given as binding are weak or reduced against the parent protein; the word gives no strength.

B1: EGFR-specific short peptide E2 (…) (peptide)
peptide: ARSHVGYTGAR
modifications: rhodamine B dye-conjugated (position not given)
B1: the binding entry in assay [1] and in assay [2] was “binds” each time.
